Test results published in the supplement of paper PMC12823440, “Inhibitors supercharge kinase turnover through native proteolytic circuits” (Nature, 2025).
Where a name gives a salt, the structure may show the parent alone. The list shows a part of the results. Hit calls seldom repeat between salt and free forms of one compound.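 Kinases were expressed as nanoluciferase fusions in K562 cells and luminescence was read every 4 h between 2 and 18 h as percent of control, DMSO set to 100% and a positive control to 0%. A time point counts as decreased when the signal drops significantly (2 sigma). The hit call is the authors' own, does not follow from the count of time points alone, and its rule is not shown.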

The chains behind the UniProt entries cited, without tags or fusion partners.
UniProt Q9UQM7, whole entry: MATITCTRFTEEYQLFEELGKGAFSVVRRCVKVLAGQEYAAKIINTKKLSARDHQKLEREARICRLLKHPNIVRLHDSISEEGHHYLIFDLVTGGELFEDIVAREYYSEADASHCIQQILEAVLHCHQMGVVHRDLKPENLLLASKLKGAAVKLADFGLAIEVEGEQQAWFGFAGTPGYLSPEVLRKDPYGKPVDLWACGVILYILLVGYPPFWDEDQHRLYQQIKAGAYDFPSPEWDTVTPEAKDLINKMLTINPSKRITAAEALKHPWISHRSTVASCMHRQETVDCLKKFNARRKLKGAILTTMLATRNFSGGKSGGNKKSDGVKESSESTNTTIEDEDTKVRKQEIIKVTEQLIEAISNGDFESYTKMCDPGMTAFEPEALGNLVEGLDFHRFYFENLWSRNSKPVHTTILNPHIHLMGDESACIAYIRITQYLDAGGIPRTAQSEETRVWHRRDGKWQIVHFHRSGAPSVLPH

biological target: CAMK2A (UniProt Q9UQM7); assay: kinase-Nluc reporter destabilization hit call (1 = scored as downregulated) (binary); higher = compound decreases kinase abundance; details: 2 µM; K562; 2-18 h

kinase-Nluc reporter destabilization hit call, inactive:
CCc1nc(C(N)=O)c(Nc2ccc(N3CCC(N4CCN(C)CC4)CC3)c(OC)c2)nc1NC1CCOCC1 [Gilteritinib] 0, CCc1nc(C(N)=O)c(Nc2ccc(N3CCC(N4CCN(C)CC4)CC3)c(OC)c2)nc1NC1CCOCC1 [Gilteritinib hemifumarate] 0, Cc1[nH]c(/C=C2\C(=O)Nc3ccc(F)cc32)c(C)c1C(=O)NCCN1CCCC1 [Toceranib (phosphate)] 0, Cc1[nH]c(/C=C2\C(=O)Nc3ccc(F)cc32)c(C)c1C(=O)NCCN1CCCC1 [Toceranib] 0

same assay, conditions: 2.5 µM; K562; 2-18 h

kinase-Nluc reporter destabilization hit call, inactive:
C=CC(=O)Nc1cc(Nc2nccc(-c3cn(C)c4ccccc34)n2)c(OC)cc1N(C)CCN(C)C [Osimertinib mesylate] 0, c1cc(-c2cnn3cc(-c4ccc(OCCN5CCCCC5)cc4)cnc23)ccn1 [Dorsomorphin] 0, CN(C)C/C=C/C(=O)Nc1cc2c(Nc3ccc(F)c(Cl)c3)ncnc2cc1O[C@H]1CCOC1 [Afatinib (dimaleate)] 0, C=CC(=O)Nc1cc(Nc2nccc(-c3cn(C)c4ccccc34)n2)c(OC)cc1N(C)CCN(C)C [Osimertinib] 0, CN(C)C(=O)c1cc2cnc(Nc3ccc(N4CCNCC4)cn3)nc2n1C1CCCC1 [Ribociclib hydrochloride] 0, COc1ccc(S(=O)(=O)Nc2ccccc2CN(C)C/C=C/c2ccc(Cl)cc2)cc1 [KN-92 (hydrochloride)] 0, COc1ccc(S(=O)(=O)Nc2ccccc2CN(C)C/C=C/c2ccc(Cl)cc2)cc1 [KN-92 (phosphate)] 0
